For 28 molecules, Log2FoldChange results are on record in PMC10443802 (JCI Insight, 2023).

The subject of the data set is OATP1B2. In words: Untargeted metabolomics of plasma and DRG, WT vs OATP1B2-deficient mice. It is filed as in vivo, mouse. Particulars: untargeted metabolomics, WT vs OATP1B2-deficient mice.
The mark [1] stands for this setting: supplement sheet "Figure 5B" (volcano plot).

Molecules are shown by their SMILES. Where a SMILES comes first, the peptide text is derived from it.

`Cc1ncc(C[n+]2csc(CCO)c2C)c(N)n1` [thiamin (Vitamin B1)] gave a Log2FoldChange under setting [1] of 0.3896.
The molecule `Cc1ncc(C[n+]2csc(CCOP(=O)(O)O)c2C)c(N)n1` [thiamin monophosphate] displayed a Log2FoldChange (sheet "Figure 5C") of 0.2265.
With `Cc1c[nH]c(=O)[nH]c1=O` [thymine], the Log2FoldChange runs as follows: under setting [1], 0.3674; (sheet "Figure 5C") 0.5945.
On to `NC(Cc1cc(I)c(Oc2cc(I)c(O)c(I)c2)c(I)c1)C(=O)O` (stereo not shown) [thyroxine], for which the Log2FoldChange (Figure 5B source data (volcano plot), log2 fold change of metabolite level) is -0.2515.
Molecule `C/C=C(\C)C(=O)NCC(=O)O` [tigloylglycine] showed a Log2FoldChange under setting [1] of 0.4647.
Same read-out and setting: to `CCC/C=C/C(=O)NCC(=O)O` [trans-2-hexenoylglycine] belongs 0.2265; to `CCCC[C@@H]1C[C@H]1CC(=O)NCC(=O)O` [trans-3,4-methyleneheptanoylglycine], 0.263.
Turning to `O=C(O)[C@@H]1C[C@@H](O)CN1` [trans-4-hydroxyproline], the Log2FoldChange runs as follows: (supplement sheet "Figure 5B") -0.1203; (sheet "Figure 5C") -0.1361.
On to `O=C(O)/C=C/c1cnc[nH]1` [trans-urocanate], for which the Log2FoldChange is listed as 0.433 under setting [1] and -0.1844 (sheet "Figure 5C").
Regarding `C[N+](C)(C)[O-]` [trimethylamine N-oxide], the Log2FoldChange under setting [1] was determined as 0.3785.
Where the note is “sheet "Figure 5C"”, `CC(=O)O.NC(CO)(CO)CO` [trizma acetate] showed a Log2FoldChange of 1.546.
On the same count and under the same terms, with `N[C@@H](Cc1ccc(O)cc1)C(=O)O` [tyrosine] the figure was 0.2265.
Molecule `O=C(O)CCCCCCCCCC(=O)O` [undecanedioate (C11-DC)] returned a Log2FoldChange under setting [1] of 1.585.
On to `Oc1nc(O)c2nc(O)[nH]c2n1` [urate], for which the Log2FoldChange reads like this: under setting [1], 0.2265; (sheet "Figure 5C") 0.2869.
For `NC(N)=O` [urea], the Log2FoldChange runs as follows: (supplement sheet "Figure 5B") 0.1375; (sheet "Figure 5C") 0.111.
In turn, `C[C@H](CCC(=O)O)[C@H]1CC[C@H]2[C@@H]3[C@@H](O)C[C@@H]4C[C@H](O)CC[C@]4(C)[C@H]3C[C@H](O)[C@]12C` [ursocholate] returned a Log2FoldChange under setting [1] of 5.0781.
On the same count and under the same terms, to `C[C@H](CCC(=O)O)[C@H]1CC[C@H]2[C@@H]3[C@@H](O)C[C@@H]4C[C@H](O)CC[C@]4(C)[C@H]3CC[C@]12C` [ursodeoxycholate] belongs 2.025.
Take `CCCCC(=O)O` [valerate (5:0)]: the Log2FoldChange is, setting by setting: under setting [1], 0.3219; (sheet "Figure 5C") 0.05658.
In the case of `CCCCC(=O)O[C@H](CC(=O)[O-])C[N+](C)(C)C` [valerylcarnitine (C5)], under setting [1], the Log2FoldChange is listed as 0.4854.
`CCCCC(=O)NCC(=O)O` [valerylglycine] had a Log2FoldChange under setting [1] of 0.6135.
Turning to `CC(C)[C@H](N)C(=O)N[C@@H](CCC(N)=O)C(=O)O` [valylglutamine] (H-Val-Gln-OH), the Log2FoldChange (sheet "Figure 5C") came out at 0.189.
Molecule `CC(C)[C@H](N)C(=O)NCC(=O)O` [valylglycine] (H-Val-Gly-OH) returned a Log2FoldChange (sheet "Figure 5C") of 0.263.
Regarding `CC(C)C[C@H](NC(=O)[C@@H](N)C(C)C)C(=O)O` [valylleucine] (H-Val-Leu-OH), the Log2FoldChange (sheet "Figure 5C") amounted to 0.251.
`COc1cc(CC(O)C(=O)O)ccc1O` (stereo not shown) [vanillactate] gave a Log2FoldChange (supplement sheet "Figure 5B") of 0.1763.
For `O=c1[nH]c(=O)c2nc[nH]c2[nH]1` [xanthine], the Log2FoldChange (supplement sheet "Figure 5B") was found to be 0.189 and the Log2FoldChange (sheet "Figure 5C") turned out to be 0.2265.
With `OC[C@H]1O[C@@H](n2cnc3c(O)nc(O)nc32)[C@H](O)[C@@H]1O` [xanthosine], the Log2FoldChange under setting [1] stood at 0.4957 and the Log2FoldChange (sheet "Figure 5C") was 0.4222.
Consider `O=C(O)c1cc(O)c2cccc(O)c2n1` [xanthurenate], for which the Log2FoldChange under setting [1] is 0.275.
On to `Cc1c(C)c2c(c(C)c1O)CC[C@@](C)(CCC[C@H](C)CCC[C@H](C)CCCC(C)C)O2` [α-tocopherol], for which the Log2FoldChange under setting [1] is reported as 1.021 and the Log2FoldChange (sheet "Figure 5C") is given as -0.454.
